PMC12832256
Results are given in words; binding and its absence hold for the method and conditions named. Binding seen in cells or lysates may run through a third protein. Some binding calls cover weakened binding; strength is not graded here.

The chains behind the UniProt entries cited, without tags or fusion partners.
UniProt P42684: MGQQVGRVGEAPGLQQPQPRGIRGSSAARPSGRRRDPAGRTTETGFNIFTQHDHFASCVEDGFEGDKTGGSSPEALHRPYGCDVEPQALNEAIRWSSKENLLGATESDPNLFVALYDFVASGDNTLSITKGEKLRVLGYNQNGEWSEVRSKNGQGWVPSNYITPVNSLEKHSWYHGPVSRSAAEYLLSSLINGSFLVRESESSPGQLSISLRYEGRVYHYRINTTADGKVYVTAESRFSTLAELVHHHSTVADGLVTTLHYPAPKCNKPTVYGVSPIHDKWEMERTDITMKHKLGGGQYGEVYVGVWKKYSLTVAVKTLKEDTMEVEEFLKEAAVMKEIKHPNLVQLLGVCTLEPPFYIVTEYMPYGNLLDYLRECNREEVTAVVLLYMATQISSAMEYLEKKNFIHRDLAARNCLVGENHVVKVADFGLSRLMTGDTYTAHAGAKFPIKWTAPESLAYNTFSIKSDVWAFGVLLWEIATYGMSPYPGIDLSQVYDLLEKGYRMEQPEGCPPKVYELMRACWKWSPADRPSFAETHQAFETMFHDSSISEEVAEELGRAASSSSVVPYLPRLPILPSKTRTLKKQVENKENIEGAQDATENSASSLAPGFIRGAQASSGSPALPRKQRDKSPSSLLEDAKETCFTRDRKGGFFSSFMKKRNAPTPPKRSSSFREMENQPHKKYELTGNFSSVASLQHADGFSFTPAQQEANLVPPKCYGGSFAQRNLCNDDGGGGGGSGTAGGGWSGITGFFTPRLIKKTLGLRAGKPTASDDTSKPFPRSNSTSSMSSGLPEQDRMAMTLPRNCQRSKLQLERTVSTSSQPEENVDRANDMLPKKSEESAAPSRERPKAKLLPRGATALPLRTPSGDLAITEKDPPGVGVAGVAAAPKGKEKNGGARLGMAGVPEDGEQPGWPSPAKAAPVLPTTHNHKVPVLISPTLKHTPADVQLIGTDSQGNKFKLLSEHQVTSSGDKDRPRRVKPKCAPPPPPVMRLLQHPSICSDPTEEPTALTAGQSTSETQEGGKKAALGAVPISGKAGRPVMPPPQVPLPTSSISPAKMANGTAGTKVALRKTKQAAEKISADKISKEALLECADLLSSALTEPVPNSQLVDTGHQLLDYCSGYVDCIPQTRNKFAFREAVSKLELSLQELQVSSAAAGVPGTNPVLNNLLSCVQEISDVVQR
UniProt Q14247: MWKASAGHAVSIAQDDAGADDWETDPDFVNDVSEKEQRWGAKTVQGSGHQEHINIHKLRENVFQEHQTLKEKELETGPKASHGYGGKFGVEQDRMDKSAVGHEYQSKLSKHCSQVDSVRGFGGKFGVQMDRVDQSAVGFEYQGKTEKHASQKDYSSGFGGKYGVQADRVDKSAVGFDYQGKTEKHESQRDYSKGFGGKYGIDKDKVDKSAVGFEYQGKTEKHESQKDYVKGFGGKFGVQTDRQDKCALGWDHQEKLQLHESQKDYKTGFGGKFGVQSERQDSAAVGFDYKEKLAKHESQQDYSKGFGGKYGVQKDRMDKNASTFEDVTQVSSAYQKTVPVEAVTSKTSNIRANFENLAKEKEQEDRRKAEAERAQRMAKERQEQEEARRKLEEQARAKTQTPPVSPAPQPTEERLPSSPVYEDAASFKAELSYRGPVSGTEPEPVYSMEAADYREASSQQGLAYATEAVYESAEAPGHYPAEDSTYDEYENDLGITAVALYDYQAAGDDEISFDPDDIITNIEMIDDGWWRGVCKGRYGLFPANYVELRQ

Target: ABL proto-oncogene 2, non-receptor tyrosine kinase (ABL2) (human (endogenous in SK-N-Be2 and SK-N-AS)) (UniProt P42684)
Assay: co-IP; lysates of SK-N-Be2 and SK-N-AS cells with or without DANCR overexpression; antibody (anti-ABL2 or anti-cortactin, 1:50) with protein A/G dynabeads; western blot

Substance: cortactin (from UniProt Q14247 1-550)
- binding: binds
